PubChem BioAssay AID2685 (National Center for Advancing Translational Sciences (NCATS), 2010)
The other results are listed elsewhere or left out. The main result of the screen is listed elsewhere. These columns were measured beside it and carry no call. Compounds called inactive in the main read-out are mostly missing here. Words in brackets tell the shape of the fitted curve; partial curves, single points and poor fits give uncertain potencies.

Experiment: qHTS Assay for Lipid Storage Modulators in Drosophila S3 Cells;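 for cell number change: cells counted by Cell Tracker Red CMTPX staining in the red channel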
Conditions: BODIPY lipid droplet fluorescence, 18-24 h; for cell number change: measured here: cell count max response, cells fed with added oleic acid
Outline: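 Laser-scanning cytometry quantifies lipid droplet accumulation (500–530 nm total intensity; droplet/cell object ratio) in oleic acid-fed (400 uM added) Drosophila S3 cells treated with a concentration series. 20 uM Triacsin C defined 100% inhibition.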

[1] = measured here: cell number channel AC50, cells fed with added oleic acid
[2] = measured here: lipid fluorescence (Fed channel) AC50, cells fed with added oleic acid

SMILES	cell number change	AC50 [1]	AC50 [2]
CCCCOc1ccc(S(=O)(=O)NNC(=O)c2cc3ccccc3o2)cc1	-50%	4.11 µM [falling, partial curve]	2.91 µM [falling, partial curve]
CCNC(=O)CSc1nnc(-c2cccs2)o1	-18.1%		
Cc1oc(CN2CCOCC2)cc1C(=O)O	-17.8%		
Cc1ccccc1S(=O)(=O)Cc1ccc(C(=O)NC2CC2)o1	-16.5%		
CCOC(=O)N1CCC(C(N)=O)CC1	-84.2%	29.1 µM [falling, single point]	23.1 µM [falling, single point]
COc1ccc2nc(NC(=O)CSc3nccc(C)n3)sc2c1	-8.92%		29.1 µM [falling, single point]
Cc1ccc2nc(-c3cccc(S(=O)(=O)N4CC(C)OC(C)C4)c3)cn2c1 (stereo unspecified)			0.291 µM [falling, full curve]
O=C(C[n+]1ccc(C(=O)N/N=C/c2ccc(Br)cc2)cc1)c1ccccc1		0.731 µM [rising, single point]	1.03 µM [rising, full curve]
CCN(CCCNC(=O)CN1C(=O)COc2ccccc21)c1cccc(C)c1			6.51 µM [rising, single point]
Cc1c(NC(=O)NCCN2C(=O)C3C4C=CC(C4)C3C2=O)c(=O)n(-c2ccccc2)n1C (stereo unspecified)	0.546%		
Cc1ccc2nc(-c3ccc(NS(=O)(=O)c4ccc(F)c(F)c4)cc3)sc2c1	-32%	0.00517 µM [falling, full curve, poor fit]	29.1 µM [falling, single point]
COc1ccccc1C(=O)C(O)c1ccccc1OC (stereo unspecified)	-149%	25.9 µM [falling, partial curve]	29.1 µM [falling, single point]
CC(C)[C@H](NC(=O)NCc1ccco1)C(=O)O	-14.1%		
Cn1c(/C(C#N)=C(\O)c2ccc(Br)s2)nc2ccccc21	-4.94%		0.651 µM [rising, single point]
COc1ccc(-n2ncc3c2CC(C)(C)CC3NC(=O)c2cn[nH]c2)cc1 (stereo unspecified)	9.63%		7.31 µM [falling, single point]
O=C1CC(NS(=O)(=O)c2ccc([N+](=O)[O-])cc2)CN1c1ccc(Cl)cc1 (stereo unspecified)	24.8%	2.91 µM [rising, full curve, poor fit]	
CC1(C)CC2CC(C)(CN2Cc2c(O)ccc3ccccc23)C1 (stereo unspecified)	-6.02%		6.51 µM [rising, single point]
Cc1cc(C)n(S(=O)(=O)c2ccc(C(C)(C)C)cc2)n1	-56.6%	29.1 µM [falling, single point]	6.51 µM [falling, single point]
COCCCNC(=O)c1cn(CCOC)c(=O)c2c1c1ccccc1n2C	15.3%	5.17 µM [rising, single point]	6.51 µM [rising, single point]
O=C1NCC(c2ccccc2)C1C(=O)N/N=C\c1ccc(-c2ccc(Cl)c(Cl)c2)o1 (stereo unspecified)	-34.1%	29.1 µM [falling, single point]	

SMILES	cell number change	AC50 [1]	AC50 [2]
COc1ccc(C(=O)O/N=C(\N)Cc2ccc([N+](=O)[O-])cc2)c(OC)c1	21.8%		14.6 µM [rising, single point]
CC(C)(C)OC(=O)[C@H](Cc1ccccc1)NC(=O)c1[nH]cnc1C(=O)N[C@@H](Cc1ccccc1)C(=O)OCc1ccccc1	54.5%	16.4 µM [rising, single point]	4.61 µM [falling, full curve]
NNc1ccccc1C(F)(F)F	-33.2%		
COc1ccc(C(=O)N(CN2CCCC2=O)c2nccs2)cc1OC	20.4%	0.366 µM [rising, full curve, poor fit]	
COc1ccccc1CNC(=O)CN1CCN(S(=O)(=O)c2cccs2)CC1	-25.6%	2.59 µM [rising, single point]	32.6 µM [falling, single point]
COc1cccc(CNC(=O)CCC2CCCN(C(=O)c3cscn3)C2)c1 (stereo unspecified)	2.31%		0.0651 µM [rising, full curve, poor fit]
CC1CC(C)CN(c2cc(=O)n(Cc3ccc(F)cc3)c(=O)[nH]2)C1 (stereo unspecified)	7.76%		
CCCCNC(=O)c1ccc(NS(=O)(=O)c2ccc3[nH]c(=O)[nH]c3c2)cc1	-13.5%		0.58 µM [falling, single point]
O=C1CCCCC1Sc1nnc(Nc2ccccc2)s1 (stereo unspecified)	18.8%	0.164 µM [falling, full curve]	
Cc1ccc(C(=O)Nc2nc(COc3ccccc3)cs2)s1	62.5%	16.4 µM [rising, partial curve, poor fit]	20.6 µM [rising, partial curve]
CCCCCCSc1cc(-c2nc3cnccn3c2NCc2ccccc2)ccc1OC	-14.4%		29.1 µM [rising, single point]
CCc1c(C)sc(NC(=S)Nc2nc(C)cc(C)n2)c1C(=O)OC	-44.4%		
CCCn1c(=O)c(C(=O)NCc2ccccn2)c(O)c2ccccc21	62.5%	2.31 µM [rising, full curve, poor fit]	0.058 µM [rising, full curve, poor fit]
CCOC(=O)Cn1c(=NC(=O)CC)sc2c(C)cc(C)cc21	8.3%		6.51 µM [rising, single point]
CCN(Cc1ccc2c(c1)OCO2)C(=O)/C=C/c1cccc(Br)c1	4.5%		
CCCCc1nnc(NC(=O)COC)s1	-0.955%	0.00461 µM [falling, full curve, poor fit]	0.00461 µM [falling, full curve, poor fit]
CNc1nc(OCCNC(=O)Nc2ccccc2)nc(N2CCOCC2)n1		0.92 µM [rising, full curve]	6.51 µM [falling, full curve]
O=C(CN1C(=O)C2C3C=CC(C3)C2C1=O)OCC(=O)c1ccc([N+](=O)[O-])cc1 (stereo unspecified)	-20.6%		
COc1ccc(CC(=O)Nc2ccc(-c3noc(-c4ccccc4OC)n3)cc2)cc1	23.4%	0.411 µM [rising, partial curve, poor fit]	0.411 µM [rising, full curve]
Cn1c(CCN2CCN(c3ccc(F)cc3)CC2)nc2cc(NC(=O)c3ccco3)ccc21	30.1%	20.6 µM [rising, single point]	

SMILES	cell number change	AC50 [1]	AC50 [2]
C1CCCCCC2(CCCCC1)OCC(CN1CCOCC1)O2 (stereo unspecified)	0.0359%		
C=CCSc1nnc(-c2c[nH]c3ccccc23)n1CCOC	-16.1%		0.0731 µM [falling, full curve, poor fit]
C#CCOCCOCCOCCNc1nc(N2CCN(C(=O)Cn3cc(CCCN=C(N)N)nn3)CC2)nc(N2CCN(C(=O)[C@H](CCCCN)n3cc(CCC(=O)O)nn3)CC2)n1	22%		
CC(=O)N[C@@H]1[C@@H](O)[C@@H]2OC(c3ccccc3)OC[C@H]2O[C@@H]1N=[N+]=[N-] (stereo partly specified)	2.2%		20.6 µM [rising, single point]
Cc1cccc(C(=O)Oc2ccc(/C=N/O)cc2)c1	-44.4%	29.1 µM [falling, single point]	29.1 µM [falling, single point]
O=C(Oc1ccccc1[N+](=O)[O-])c1cccnc1	-19.8%		
COc1ccc(NC(=O)CSc2nnc3n2CCCCC3)cc1	31.2%	5.8 µM [rising, full curve, poor fit]	
CSc1ncc(CN2CCCC(C(=O)Nc3ccc(-c4ccco4)cc3)C2)cn1 (stereo unspecified)	-13.4%		
Cc1cccc(CC2CC(=O)N(c3ccc(C)cc3Br)C2=O)c1 (stereo unspecified)	-32%	14.6 µM [falling, single point]	0.58 µM [rising, single point]
CC(=O)N=c1sc(C(C)(C)C)c(C)n1C	-4.68%		1.84 µM [rising, partial curve]
CCCCCCCn1c2c(c(=N)c3ccccc31)CCC2	-66.1%	5.8 µM [falling, full curve]	8.2 µM [falling, partial curve]
O=C(O)C1=C(C(=O)N2CCN(C(=O)c3ccco3)CC2)CCCC1	-1.29%		18.4 µM [rising, partial curve, poor fit]
Cc1ccc(NC(=O)c2csc(-c3ccccc3)c2C)cc1	-2.39%		6.51 µM [falling, single point]
COC(=O)C1C(=O)OC(C)(C)C1C(C)C(=O)c1ccccc1 (stereo unspecified)	-32.4%	3.66 µM [falling, full curve]	
COc1ccc(C(=O)OCCOc2cccc(Cl)c2)cc1S(=O)(=O)N1CCOCC1			6.51 µM [falling, single point]
C/C(=N/NC(=O)c1ccc(O)cc1)c1cccc([N+](=O)[O-])c1			6.51 µM [rising, single point]
CCc1c(C(=O)NCCc2cccc(C)c2)[nH]c(C)c1C(C)=O	11.1%		0.461 µM [falling, full curve, poor fit]
CCCc1cnc(NCCNCC(O)COc2ccc(Cl)c(Cl)c2)nc1 (stereo unspecified)	-51.5%	29.1 µM [falling, single point]	18.4 µM [falling, single point]
Cc1ccc(/C=C/C(=O)OCC(=O)N(CC(C)C)c2c(N)n(Cc3ccccc3)c(=O)[nH]c2=O)o1	-12.1%		0.164 µM [falling, full curve, poor fit]

Given bar-delimited: eleven of the compounds above
SMILES | cell number change | AC50 [1] | AC50 [2]
O=C1NCC(c2ccccc2)C1C(=O)N/N=C\c1ccc(-c2ccc(Cl)c(Cl)c2)o1 (stereo unspecified) | -34.1% | 29.1 µM [falling, single point] | 
COc1ccc(C(=O)O/N=C(\N)Cc2ccc([N+](=O)[O-])cc2)c(OC)c1 | 21.8% |  | 14.6 µM [rising, single point]
CC(C)(C)OC(=O)[C@H](Cc1ccccc1)NC(=O)c1[nH]cnc1C(=O)N[C@@H](Cc1ccccc1)C(=O)OCc1ccccc1 | 54.5% | 16.4 µM [rising, single point] | 4.61 µM [falling, full curve]
NNc1ccccc1C(F)(F)F | -33.2% |  | 
COc1ccc(C(=O)N(CN2CCCC2=O)c2nccs2)cc1OC | 20.4% | 0.366 µM [rising, full curve, poor fit] | 
COc1ccccc1CNC(=O)CN1CCN(S(=O)(=O)c2cccs2)CC1 | -25.6% | 2.59 µM [rising, single point] | 32.6 µM [falling, single point]
COc1cccc(CNC(=O)CCC2CCCN(C(=O)c3cscn3)C2)c1 (stereo unspecified) | 2.31% |  | 0.0651 µM [rising, full curve, poor fit]
CC1CC(C)CN(c2cc(=O)n(Cc3ccc(F)cc3)c(=O)[nH]2)C1 (stereo unspecified) | 7.76% |  | 
CCCCNC(=O)c1ccc(NS(=O)(=O)c2ccc3[nH]c(=O)[nH]c3c2)cc1 | -13.5% |  | 0.58 µM [falling, single point]
O=C1CCCCC1Sc1nnc(Nc2ccccc2)s1 (stereo unspecified) | 18.8% | 0.164 µM [falling, full curve] | 
Cc1ccc(C(=O)Nc2nc(COc3ccccc3)cs2)s1 | 62.5% | 16.4 µM [rising, partial curve, poor fit] | 20.6 µM [rising, partial curve]
